Laboratory results as given in the supplement of paper PMC10849652.
This is one part of the list.

Chains of the proteins cited; added tags and fusions are not shown. Lines headed by an entry give the natural chain unless they say otherwise; changes in a name come on top.
UniProt Q96P53: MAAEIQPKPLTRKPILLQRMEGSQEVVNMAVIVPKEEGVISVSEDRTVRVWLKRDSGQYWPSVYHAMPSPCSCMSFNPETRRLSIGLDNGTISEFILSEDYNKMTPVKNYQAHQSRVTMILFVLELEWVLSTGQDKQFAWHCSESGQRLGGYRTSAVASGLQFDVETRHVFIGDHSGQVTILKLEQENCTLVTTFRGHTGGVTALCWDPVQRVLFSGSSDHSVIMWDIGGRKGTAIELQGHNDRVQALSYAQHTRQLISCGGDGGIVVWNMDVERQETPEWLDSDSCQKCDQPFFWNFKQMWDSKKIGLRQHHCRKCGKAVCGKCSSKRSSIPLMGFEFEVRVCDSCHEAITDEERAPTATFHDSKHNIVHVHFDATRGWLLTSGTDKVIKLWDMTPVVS
UniProt Q9H270: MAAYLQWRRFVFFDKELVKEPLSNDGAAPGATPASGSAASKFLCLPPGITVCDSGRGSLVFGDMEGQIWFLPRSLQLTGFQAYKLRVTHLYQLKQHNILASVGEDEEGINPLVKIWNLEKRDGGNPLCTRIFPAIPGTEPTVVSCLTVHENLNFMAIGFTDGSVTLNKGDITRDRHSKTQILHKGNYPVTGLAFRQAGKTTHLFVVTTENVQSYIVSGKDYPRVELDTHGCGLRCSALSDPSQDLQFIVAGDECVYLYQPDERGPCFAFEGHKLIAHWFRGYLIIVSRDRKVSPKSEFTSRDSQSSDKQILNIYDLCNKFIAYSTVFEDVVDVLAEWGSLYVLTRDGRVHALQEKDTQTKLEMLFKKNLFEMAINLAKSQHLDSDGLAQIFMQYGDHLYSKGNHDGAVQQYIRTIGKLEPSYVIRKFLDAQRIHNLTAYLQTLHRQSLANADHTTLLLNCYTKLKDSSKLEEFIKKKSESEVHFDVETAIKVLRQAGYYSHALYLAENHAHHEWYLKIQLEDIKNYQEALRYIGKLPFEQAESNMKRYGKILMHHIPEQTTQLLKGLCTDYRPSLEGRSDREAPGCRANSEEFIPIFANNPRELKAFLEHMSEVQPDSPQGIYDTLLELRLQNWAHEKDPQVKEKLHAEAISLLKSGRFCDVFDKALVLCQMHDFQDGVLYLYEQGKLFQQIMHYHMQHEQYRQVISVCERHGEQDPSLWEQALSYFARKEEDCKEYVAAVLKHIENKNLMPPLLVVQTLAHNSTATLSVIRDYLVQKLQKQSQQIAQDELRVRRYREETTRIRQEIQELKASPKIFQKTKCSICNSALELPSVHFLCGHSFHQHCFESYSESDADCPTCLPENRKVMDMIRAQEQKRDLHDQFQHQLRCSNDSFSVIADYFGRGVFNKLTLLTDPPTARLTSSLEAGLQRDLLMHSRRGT
UniProt Q9HD64: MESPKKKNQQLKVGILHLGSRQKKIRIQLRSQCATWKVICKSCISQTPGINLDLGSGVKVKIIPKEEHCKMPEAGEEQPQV
UniProt Q502W6: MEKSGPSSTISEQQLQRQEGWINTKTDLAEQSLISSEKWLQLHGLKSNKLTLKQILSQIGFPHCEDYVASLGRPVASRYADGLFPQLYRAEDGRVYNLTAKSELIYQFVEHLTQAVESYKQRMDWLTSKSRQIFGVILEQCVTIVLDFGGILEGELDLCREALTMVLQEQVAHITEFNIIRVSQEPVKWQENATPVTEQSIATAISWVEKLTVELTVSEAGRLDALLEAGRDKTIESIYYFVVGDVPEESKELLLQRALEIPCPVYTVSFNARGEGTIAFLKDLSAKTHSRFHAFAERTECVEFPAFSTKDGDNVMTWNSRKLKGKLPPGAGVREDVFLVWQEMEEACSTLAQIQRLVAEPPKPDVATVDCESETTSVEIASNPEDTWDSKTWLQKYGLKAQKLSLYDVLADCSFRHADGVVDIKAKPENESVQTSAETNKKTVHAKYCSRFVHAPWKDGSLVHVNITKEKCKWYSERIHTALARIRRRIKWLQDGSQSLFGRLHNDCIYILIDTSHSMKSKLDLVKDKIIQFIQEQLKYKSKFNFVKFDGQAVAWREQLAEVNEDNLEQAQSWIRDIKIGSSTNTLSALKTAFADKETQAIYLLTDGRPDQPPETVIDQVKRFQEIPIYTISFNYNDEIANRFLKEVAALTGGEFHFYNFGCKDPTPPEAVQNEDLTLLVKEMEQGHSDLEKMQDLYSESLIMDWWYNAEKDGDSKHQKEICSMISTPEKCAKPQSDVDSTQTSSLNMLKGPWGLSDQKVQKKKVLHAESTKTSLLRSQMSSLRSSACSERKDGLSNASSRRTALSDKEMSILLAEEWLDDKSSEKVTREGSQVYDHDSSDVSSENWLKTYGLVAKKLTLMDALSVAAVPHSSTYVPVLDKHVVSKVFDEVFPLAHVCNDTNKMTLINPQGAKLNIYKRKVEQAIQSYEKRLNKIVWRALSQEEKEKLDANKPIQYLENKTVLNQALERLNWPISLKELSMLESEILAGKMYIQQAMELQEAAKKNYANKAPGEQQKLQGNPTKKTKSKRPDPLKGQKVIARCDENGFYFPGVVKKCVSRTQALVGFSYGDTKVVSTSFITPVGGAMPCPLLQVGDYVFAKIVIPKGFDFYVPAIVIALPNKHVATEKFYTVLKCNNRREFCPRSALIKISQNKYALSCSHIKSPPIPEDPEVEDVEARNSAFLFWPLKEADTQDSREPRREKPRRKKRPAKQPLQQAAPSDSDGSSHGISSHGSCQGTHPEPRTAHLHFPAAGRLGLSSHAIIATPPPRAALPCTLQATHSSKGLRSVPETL
UniProt Q9BRX9: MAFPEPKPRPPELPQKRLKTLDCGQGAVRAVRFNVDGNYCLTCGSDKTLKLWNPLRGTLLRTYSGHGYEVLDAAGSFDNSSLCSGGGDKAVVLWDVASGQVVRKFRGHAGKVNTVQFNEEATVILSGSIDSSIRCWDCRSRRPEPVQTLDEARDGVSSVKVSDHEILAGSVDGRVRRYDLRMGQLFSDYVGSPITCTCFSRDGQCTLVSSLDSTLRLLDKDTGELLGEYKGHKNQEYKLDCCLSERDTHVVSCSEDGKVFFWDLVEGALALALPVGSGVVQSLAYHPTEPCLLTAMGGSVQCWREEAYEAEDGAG
UniProt Q96EX3: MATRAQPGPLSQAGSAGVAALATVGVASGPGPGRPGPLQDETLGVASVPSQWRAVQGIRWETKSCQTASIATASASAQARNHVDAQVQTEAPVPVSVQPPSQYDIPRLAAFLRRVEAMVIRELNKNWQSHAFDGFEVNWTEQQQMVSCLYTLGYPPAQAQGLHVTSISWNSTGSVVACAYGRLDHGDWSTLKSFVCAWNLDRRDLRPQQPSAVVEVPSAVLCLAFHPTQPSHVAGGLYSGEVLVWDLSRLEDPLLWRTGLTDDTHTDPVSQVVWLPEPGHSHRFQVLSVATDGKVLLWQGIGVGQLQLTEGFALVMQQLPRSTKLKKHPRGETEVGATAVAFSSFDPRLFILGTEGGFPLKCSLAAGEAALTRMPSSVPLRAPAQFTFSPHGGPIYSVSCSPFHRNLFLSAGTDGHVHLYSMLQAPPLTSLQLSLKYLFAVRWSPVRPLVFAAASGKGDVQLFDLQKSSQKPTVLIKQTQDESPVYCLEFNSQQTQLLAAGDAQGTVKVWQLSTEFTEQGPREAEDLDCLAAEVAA
UniProt Q9H967: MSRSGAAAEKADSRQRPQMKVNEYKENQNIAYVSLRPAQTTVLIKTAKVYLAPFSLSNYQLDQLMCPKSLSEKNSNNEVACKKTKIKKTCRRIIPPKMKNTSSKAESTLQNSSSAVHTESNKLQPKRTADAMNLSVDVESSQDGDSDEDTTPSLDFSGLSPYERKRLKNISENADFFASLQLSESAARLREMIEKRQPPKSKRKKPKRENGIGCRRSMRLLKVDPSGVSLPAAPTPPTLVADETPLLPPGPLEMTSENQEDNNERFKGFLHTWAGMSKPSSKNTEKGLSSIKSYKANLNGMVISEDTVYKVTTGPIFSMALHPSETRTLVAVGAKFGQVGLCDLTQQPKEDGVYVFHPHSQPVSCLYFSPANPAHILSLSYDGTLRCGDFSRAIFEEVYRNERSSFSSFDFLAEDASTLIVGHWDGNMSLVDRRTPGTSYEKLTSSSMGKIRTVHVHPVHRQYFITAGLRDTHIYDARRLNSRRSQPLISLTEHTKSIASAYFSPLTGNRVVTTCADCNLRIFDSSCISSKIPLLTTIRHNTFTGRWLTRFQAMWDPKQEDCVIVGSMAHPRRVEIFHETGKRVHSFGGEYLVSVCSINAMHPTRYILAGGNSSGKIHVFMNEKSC
UniProt O75351, whole entry, looked up: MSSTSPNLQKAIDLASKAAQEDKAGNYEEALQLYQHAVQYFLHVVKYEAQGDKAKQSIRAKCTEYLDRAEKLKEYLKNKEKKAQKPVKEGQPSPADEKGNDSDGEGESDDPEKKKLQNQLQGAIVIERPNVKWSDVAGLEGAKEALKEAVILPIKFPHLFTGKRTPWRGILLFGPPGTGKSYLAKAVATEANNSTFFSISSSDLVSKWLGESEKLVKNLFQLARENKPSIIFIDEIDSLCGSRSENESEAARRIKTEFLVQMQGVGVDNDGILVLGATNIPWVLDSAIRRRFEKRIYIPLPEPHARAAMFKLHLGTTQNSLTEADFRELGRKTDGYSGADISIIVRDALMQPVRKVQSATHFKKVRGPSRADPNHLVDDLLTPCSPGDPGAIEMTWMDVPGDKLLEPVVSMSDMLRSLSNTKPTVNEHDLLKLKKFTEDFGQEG
UniProt A3KMH1: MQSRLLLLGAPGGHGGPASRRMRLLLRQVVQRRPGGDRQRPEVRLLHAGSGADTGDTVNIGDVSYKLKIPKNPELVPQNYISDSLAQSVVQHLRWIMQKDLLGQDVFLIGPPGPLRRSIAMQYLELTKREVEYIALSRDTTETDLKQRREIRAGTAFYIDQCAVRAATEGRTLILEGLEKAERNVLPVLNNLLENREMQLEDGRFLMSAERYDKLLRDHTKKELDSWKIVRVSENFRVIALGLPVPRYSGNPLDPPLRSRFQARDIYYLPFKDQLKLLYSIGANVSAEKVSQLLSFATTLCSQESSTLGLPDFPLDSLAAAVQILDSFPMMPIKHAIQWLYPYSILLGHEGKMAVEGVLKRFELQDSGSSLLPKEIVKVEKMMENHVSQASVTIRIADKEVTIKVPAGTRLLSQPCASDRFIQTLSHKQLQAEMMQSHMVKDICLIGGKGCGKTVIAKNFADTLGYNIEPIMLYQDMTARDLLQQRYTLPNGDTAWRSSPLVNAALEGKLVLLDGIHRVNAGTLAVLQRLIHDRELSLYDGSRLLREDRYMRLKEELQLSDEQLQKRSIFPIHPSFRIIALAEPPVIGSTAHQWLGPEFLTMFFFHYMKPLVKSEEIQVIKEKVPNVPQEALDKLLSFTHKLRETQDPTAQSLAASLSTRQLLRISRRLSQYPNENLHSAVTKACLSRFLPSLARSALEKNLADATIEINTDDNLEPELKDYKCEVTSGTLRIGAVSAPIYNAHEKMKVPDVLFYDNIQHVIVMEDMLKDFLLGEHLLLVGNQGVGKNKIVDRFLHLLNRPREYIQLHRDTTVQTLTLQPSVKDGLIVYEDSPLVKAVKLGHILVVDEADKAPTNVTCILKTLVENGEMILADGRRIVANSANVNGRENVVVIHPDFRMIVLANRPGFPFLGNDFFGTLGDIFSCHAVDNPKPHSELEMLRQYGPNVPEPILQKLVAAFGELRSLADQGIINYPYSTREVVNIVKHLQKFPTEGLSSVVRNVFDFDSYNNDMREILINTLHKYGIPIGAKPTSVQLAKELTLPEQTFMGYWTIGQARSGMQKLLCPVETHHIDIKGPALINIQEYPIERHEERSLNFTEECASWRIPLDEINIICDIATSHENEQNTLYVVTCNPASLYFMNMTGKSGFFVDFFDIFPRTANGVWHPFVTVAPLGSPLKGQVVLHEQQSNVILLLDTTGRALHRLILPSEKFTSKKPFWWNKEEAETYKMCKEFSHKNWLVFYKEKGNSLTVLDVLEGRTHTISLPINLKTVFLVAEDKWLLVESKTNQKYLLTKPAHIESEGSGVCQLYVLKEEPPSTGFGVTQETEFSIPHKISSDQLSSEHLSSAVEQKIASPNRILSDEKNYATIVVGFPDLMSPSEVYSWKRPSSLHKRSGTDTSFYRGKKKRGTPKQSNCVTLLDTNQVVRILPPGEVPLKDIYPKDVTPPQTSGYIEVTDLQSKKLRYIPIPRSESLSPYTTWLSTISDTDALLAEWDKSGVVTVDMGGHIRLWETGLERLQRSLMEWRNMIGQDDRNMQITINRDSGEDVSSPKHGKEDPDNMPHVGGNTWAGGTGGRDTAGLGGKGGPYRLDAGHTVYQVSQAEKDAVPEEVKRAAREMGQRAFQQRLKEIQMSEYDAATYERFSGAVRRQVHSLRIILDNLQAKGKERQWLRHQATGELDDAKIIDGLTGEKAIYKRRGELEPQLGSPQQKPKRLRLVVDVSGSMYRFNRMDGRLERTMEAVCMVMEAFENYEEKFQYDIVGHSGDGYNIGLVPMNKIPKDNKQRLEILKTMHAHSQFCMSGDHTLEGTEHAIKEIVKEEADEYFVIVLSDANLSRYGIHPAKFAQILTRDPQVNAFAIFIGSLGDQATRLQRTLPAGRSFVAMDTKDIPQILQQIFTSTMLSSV

Experiments:
Assay in all cases: log2 fold change, soluble protein after heating vs DMSO (PISA); higher = thermal stabilisation; K562 lysate, 10 uM; active = over 0.2 and 3.5 SD of the protein, either way, in both replicates (recomputed)
Tubastatin A = compound: CN1CCc2c(c3ccccc3n2Cc2ccc(C(=O)NO)cc2)C1 [Tubastatin A]
In short: (§1)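 K562 pellets were dounce-homogenised in PBS pH 7.4 containing 1 mM MgCl2, and the crude extract, at 1 mg/mL protein, was exposed to 10 μM compound for 30 min. Aliquots were heated for 3 min across 48°C-58°C, pooled, brought to 0.5% NP-40 at 4°C and spun at 21,000xg for 90 min, with the supernatant taken as soluble protein. TMTpro 16plex LC-MS/MS with equalised channel sums quantified that protein. Values are log-two fold changes in thermal stability relative to solvent controls, taken from duplicates.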

defactinib = compound: CNC(=O)c1ccc(Nc2ncc(C(F)(F)F)c(NCc3nccnc3N(C)S(C)(=O)=O)n2)cc1 [defactinib]
In short: as §1

alisertib = compound: COc1cc(Nc2ncc3c(n2)-c2ccc(Cl)cc2C(c2c(F)cccc2OC)=NC3)ccc1C(=O)O [alisertib]
In short: as §1

[1] = compound: COc1cc2nc(-c3cc(F)ccc3O)nc(N[C@@H]3CNC[C@H]3C(C)(C)O)c2cc1OC
In short: as §1

gefitinib = compound: COc1cc2ncnc(Nc3ccc(F)c(Cl)c3)c2cc1OCCCN1CCOCC1 [gefitinib]
In short: as §1

alvocidib = compound: CN1CC[C@H](c2c(O)cc(O)c3c(=O)cc(-c4ccccc4Cl)oc23)[C@H](O)C1 [alvocidib]
In short: as §1

[2] = compound: CNc1nc(-c2ccc3c(N)n[nH]c3c2)cc(N2C[C@@H](C(=O)NC3CCCCC3)CC[C@H]2C)n1
In short: as §1

[3] = compound: CNC(=O)C1=CC=CC=C1NC2=NC(=NC=C2Cl)NC3=C(C=C(C=C3)N4CCOCC4)OC
In short: as §1

encorafenib = compound: COC(=O)N[C@@H](C)CNc1nccc(-c2cn(C(C)C)nc2-c2cc(Cl)cc(NS(C)(=O)=O)c2F)n1 [encorafenib]
In short: as §1

[4] = compound: COC(=O)[C@H](CCSC)NC(=O)C1=C(C=C(C=C1)NC[C@H](CS)N)C2=CC=CC=C2
In short: as §1

Measured: log2 fold change

WDR66 (UniProt Q8TBY9)
inactive: Tubastatin A 0.135 | defactinib -0.016

XIRP2 isoform 8 (UniProt A4UGR9)
inactive: Tubastatin A -0.025 | alisertib 0.095 | [1] -0.056 | gefitinib 0.152

WSB1 (UniProt Q9Y6I7)
inactive: alvocidib 0.184 | Tubastatin A -0.014 | [2] 0.12

WDFY2 (UniProt Q96P53)
inactive: [3] 0.076 | [2] 0.1

VSIR (UniProt Q9H7M9)
inactive: alvocidib 0.032 | Tubastatin A -0.159 | [3] -0.042 | defactinib 0.109 | [2] -0.019 | encorafenib -0.002 | [4] -0.02 | [1] 0.007

VPS11 (UniProt Q9H270)
inactive: alvocidib 0.039 | Tubastatin A -0.113 | [3] 0.023 | defactinib 0.022 | [2] -0.026 | encorafenib 0.016 | [4] -0.096 | alisertib 0.002 | [1] 0.019 | gefitinib -0.007

WARS1 (UniProt G3V456)
inactive: [1] -0.045

XAGE1A (UniProt Q9HD64)
inactive: defactinib 0.251 | encorafenib 0.154 | [4] 0.004 | alisertib -0.14 | gefitinib -0.039

WAS (UniProt P42768)
inactive: alvocidib -0.028 | [3] 0.032 | [2] 0.365 | encorafenib 0.004 | [4] 0.08 | alisertib -0.041 | gefitinib 0.215

VPS29 (UniProt Q9UBQ0)
inactive: Tubastatin A 0.036 | [3] -0.027 | defactinib 0.065 | [2] 0.138 | [1] -0.093

VWA3B isoform 6 (UniProt Q502W6)
inactive: alvocidib -0.118 | Tubastatin A -0.032 | [3] -0.062 | [2] 0.034 | encorafenib 0.112 | [4] -0.158 | alisertib 0.025 | [1] 0.057 | gefitinib 0.035

VPS35, A0A1W2PP10
inactive: alvocidib -0.216 | [3] 0.038 | alisertib -0.108 | [1] 0.051 | gefitinib 0.186

WDR83 (UniProt Q9BRX9)
inactive: Tubastatin A -0.009 | defactinib -0.05 | [2] -0.065 | alisertib -0.089 | [1] -0.091 | gefitinib -0.004

WARS1 (UniProt G3V5U1)
inactive: encorafenib 0.017 | [4] 0.158 | alisertib -0.164 | [1] -0.032 | gefitinib 0.172

WDR46, A0A0G2JJL1
inactive: alvocidib 0.13 | Tubastatin A 0.119 | defactinib 0.073 | [2] 0.048 | alisertib -0.093 | [1] -0.044 | gefitinib 0.212

WDR34 (UniProt Q96EX3)
inactive: alvocidib 0.026 | Tubastatin A -0.084 | [3] -0.009 | defactinib -0.002 | [2] -0.02 | encorafenib -0.003 | [4] 0.067 | alisertib 0.042 | gefitinib 0.011

WDR76 (UniProt Q9H967)
inactive: Tubastatin A -0.093 | [2] 0.176 | encorafenib 0.002 | [4] 0.153 | alisertib -0.082 | gefitinib -0.047

VPS4B (UniProt O75351)
inactive: alvocidib 0.027 | Tubastatin A -0.099 | [3] -0.043 | defactinib -0.002 | [2] 0.005 | encorafenib 0.04 | [4] 0.081 | alisertib -0.017 | [1] -0.018 | gefitinib 0.021

2 records drawn at random from those above:
VPS4B (UniProt O75351)
inactive: alvocidib 0.027 | Tubastatin A -0.099 | [3] -0.043 | defactinib -0.002 | [2] 0.005 | encorafenib 0.04 | [4] 0.081 | alisertib -0.017 | [1] -0.018 | gefitinib 0.021

WARS1 (UniProt G3V5U1)
inactive: encorafenib 0.017 | [4] 0.158 | alisertib -0.164 | [1] -0.032 | gefitinib 0.172

Remaining list, next part.

WEE1 (UniProt P30291)
inactive: Tubastatin A -0.194 | defactinib 0.145 | [2] -0.072 | encorafenib -0.035 | [4] 0.11 | alisertib 0.018 | [1] 0.055 | gefitinib 0.129
active: [3] 0.498

WDR13, A0A087X091
inactive: alvocidib 0.036 | defactinib 0.088

VLDLR (UniProt P98155)
inactive: Tubastatin A 0.036 | [3] -0.094

VWA8 (UniProt A3KMH1)
inactive: alvocidib -0.057 | Tubastatin A 0.079 | [3] -0.042 | defactinib 0.195 | [2] -0.018 | encorafenib -0.062 | [4] 0.205 | alisertib 0.041 | [1] -0.084 | gefitinib -0.099
